Experimental data: PubChem BioAssay AID1259308 (NCATS, 2017)
In all, the deposit lists about 59,000 reagents; below is an unselected part. Over the whole deposit, about 1,510 (2.6%) got an active call. 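Calls use total luciferase alone and ignore viability, so some active siRNAs may act by altering cell number.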 Entries without a mark were called inactive. The numbers tell different reagents against one gene apart. Reagent sequences are not shown.

Test: 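Knock-downs that increase output of a recombinant reporter protein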 (primary screen)
Cell system: human HEK293 embryonic kidney cells stably expressing firefly luciferase (HEK-CMV-Luc2-Hygro)
Reagents: single siRNA against human genes, 0.8 pmol siRNA per well
Time to read-out: 72 h
Read-out: 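Reporter luminescence and viable-cell signal on separate replicate plates, given as percent of non-targeting control and median/MAD z-scores, plus per-cell luciferase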
Reading the numbers: total luciferase, z-score and total luciferase, % of control: higher = more reporter protein produced; luciferase per cell, z-score: higher = more reporter output per viable cell; viable cells, % of control: higher = more viable cells
Rule for the call: 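An siRNA counts as active if its total luciferase robust z-score exceeds 3; genes with two or more such siRNAs out of three were retested with fresh siRNAs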
Calls: active = raised luciferase; inactive = no rise

| Target gene | reagent no. | total luciferase, z-score | total luciferase, % of control | luciferase per cell, z-score | viable cells, % of control |
| --- | --- | --- | --- | --- | --- |
| APRG1 (APRG1 tumor suppressor candidate) | 1 | -0.372 | 74.5 | 0.469 | 73.6 |
| APRG1 (APRG1 tumor suppressor candidate) | 2 | -1.08 | 60.4 | -0.886 | 85.2 |
| APRG1 (APRG1 tumor suppressor candidate) | 3 | 0.452 | 90.9 | -0.326 | 111 |
| NCBP2 (nuclear cap binding protein subunit 2) | 1 | 0.0122 | 82.1 | -0.0219 | 92.3 |
| NCBP2 (nuclear cap binding protein subunit 2) | 2 | -2.38 | 34.5 | -2 | 65.3 |
| NCBP2 (nuclear cap binding protein subunit 2) | 3 | 1.83 | 118 | 0.641 | 112 |
| LAIR1 (leukocyte associated immunoglobulin like receptor 1) | 1 | -2.8 | 26.1 | -2.74 | 59.9 |
| LAIR1 (leukocyte associated immunoglobulin like receptor 1) | 2 | -0.306 | 75.8 | -0.388 | 93.8 |
| LAIR1 (leukocyte associated immunoglobulin like receptor 1) | 3 | -0.487 | 72.2 | -0.355 | 88.6 |
| MTTP (microsomal triglyceride transfer protein) | 1 | 0.821 | 98.2 | 0.784 | 89.3 |
| MTTP (microsomal triglyceride transfer protein) | 2 | 0.51 | 92 | 0.045 | 102 |
| MTTP (microsomal triglyceride transfer protein) | 3 | -0.737 | 67.2 | -1.05 | 99.1 |
| GNG5 (G protein subunit gamma 5) | 1 | 0.961 | 101 | 0.0661 | 111 |
| GNG5 (G protein subunit gamma 5) | 2 | 1.45 | 111 | 1.31 | 87.8 |
| GNG5 (G protein subunit gamma 5) | 3 | 1.08 | 103 | 0.471 | 102 |
| OTOS (otospiralin) | 1 | -0.102 | 79.9 | 0.487 | 78.5 |
| OTOS (otospiralin) | 2 | 1.42 | 110 | 0.84 | 98.7 |
| OTOS (otospiralin) | 3 | -0.272 | 76.5 | -1.83 | 138 |
| VDAC2P5 (VDAC2 pseudogene 5) | 1 | -0.986 | 62.3 | -0.96 | 89.6 |
| VDAC2P5 (VDAC2 pseudogene 5) | 2 | 0.562 | 93.1 | -0.228 | 110 |
| VDAC2P5 (VDAC2 pseudogene 5) | 3 | 0.223 | 86.3 | -0.0515 | 97.8 |

Part of the list above, reformatted.
Target gene	reagent no.	total luciferase, z-score	total luciferase, % of control	luciferase per cell, z-score	viable cells, % of control
APRG1 (APRG1 tumor suppressor candidate)	1	-0.372	74.5	0.469	73.6
APRG1 (APRG1 tumor suppressor candidate)	2	-1.08	60.4	-0.886	85.2
APRG1 (APRG1 tumor suppressor candidate)	3	0.452	90.9	-0.326	111
NCBP2 (nuclear cap binding protein subunit 2)	1	0.0122	82.1	-0.0219	92.3
NCBP2 (nuclear cap binding protein subunit 2)	2	-2.38	34.5	-2	65.3
NCBP2 (nuclear cap binding protein subunit 2)	3	1.83	118	0.641	112
LAIR1 (leukocyte associated immunoglobulin like receptor 1)	1	-2.8	26.1	-2.74	59.9

Further results:
| Target gene | reagent no. | total luciferase, z-score | total luciferase, % of control | luciferase per cell, z-score | viable cells, % of control |
| --- | --- | --- | --- | --- | --- |
| PHOSPHO2 (phosphatase, orphan 2) | 1 | 1.02 | 102 | 0.965 | 88.6 |
| PHOSPHO2 (phosphatase, orphan 2) | 2 | -1.82 | 45.6 | -1.18 | 69.5 |
| PHOSPHO2 (phosphatase, orphan 2) | 3 | -2.05 | 41.2 | -2.37 | 85.8 |
| CDPF1 (cysteine rich DPF motif domain containing 1) | 1 | 0.832 | 98.4 | 0.606 | 93.8 |
| CDPF1 (cysteine rich DPF motif domain containing 1) | 2 | -0.367 | 74.6 | 0.609 | 71 |
| CDPF1 (cysteine rich DPF motif domain containing 1) | 3 | 0.966 | 101 | 0.428 | 101 |
| NPM3 (nucleophosmin/nucleoplasmin 3) | 1 | 0.715 | 96.1 | 0.444 | 95.6 |
| NPM3 (nucleophosmin/nucleoplasmin 3) | 2 | -0.267 | 76.6 | 0.206 | 81.1 |
| NPM3 (nucleophosmin/nucleoplasmin 3) | 3 | 2.08 | 123 | 1.36 | 96.2 |
| TNFRSF14 (TNF receptor superfamily member 14) | 1 | 0.0862 | 83.6 | -0.557 | 108 |
| TNFRSF14 (TNF receptor superfamily member 14) | 2 | -1.34 | 55.3 | -1.59 | 93.9 |
| TNFRSF14 (TNF receptor superfamily member 14) | 3 | -0.078 | 80.3 | 0.27 | 83.6 |
| ALYREF (Aly/REF export factor) | 1 | -0.841 | 65.2 | -0.398 | 80.8 |
| ALYREF (Aly/REF export factor) | 2 | -0.0569 | 80.8 | 2.21 | 50.5 |
| ALYREF (Aly/REF export factor) | 3 | -1.37 | 54.7 | 0.0414 | 60.4 |
| SMG1 | 1 | 0.198 | 85.8 | 0.573 | 82.5 |
| SMG1 | 2 | 1.32 | 108 | 0.257 | 113 |
| SMG1 | 3 | 1.67 | 115 | 0.81 | 104 |
